Measurements as given in publication PMC7239452.
Results are given in words; binding and its absence hold for the method and conditions named. Binding seen in cells or lysates may run through a third protein. Some binding calls cover weakened binding; strength is not graded here.

Molecular target: ERp29 (ER protein of 29 kDa; mouse, Min-6 insulinoma cells) (mouse (endogenous in Min-6)) (UniProt P57759)
Assay: co-IP; Min-6 cells lysed under non-denaturing conditions (RIPA without SDS or Thermo lysis buffer); 500 ug lysate protein, 10 ul primary antibody 1 h at room temperature, Protein G PLUS agarose 2 h; precipitate read by SDS-PAGE and immunoblot

B1: Sec24D (mouse, Min-6 insulinoma cells) (protein, UniProt Q6NXL1 1-1032)
chain: MSQQGYVATPPYSQSQPGMGISPPHYGHYGDPSHASSPPGVMKPLGPSAAPSGMLPPGPLPPGPPQFGPNGAHTPGHPPQRFPGPPPVNSVAPSYASGQTLPQSSYPGPGSTSSVTQLGSQFSSMQINSYGVGATPQSQGPPGPQSAGAFQGPPQPAQPSILQPGHQVPPPPPTALNGPGASPMSPPTHRQDGLPGPAPLNAQYQPPPPPGQTLGPGYPPQQATNYGPQMGGAQMSYPGGFPGGPAQMAGPAPQLQRKLDPDSIPSPIQVIENDRATRGGQVYTTNTRGQVPPLVTTECVIQDQGHSSPRYIRCTTYCFPCTSDMAKQAQIPLAAVIKPFADIPPNETPLYLVNHGESGPVRCNRCKAYMCPFMQFIEGGRRYQCGFCSCVNEVPPFYFQHLDHIGRRLDHYEKPELSLGSYEYVATLDYCRKNKPPSPPAFIFMIDVSYSNIKNGLVKLICEELKTALKRLPKEEHEETSAIRVGFITYNKVLHFFNVKSNLAQPQMMVVTDVGEVFVPLLDGFLVNYEESQSVIHNLLDQIPEMFADSNENETVFAPVIQAGMEALKAAECPGKLFIFHSSLPTAEAPGKLKNRDDKKLVNTDKEKILFQPQTAVYESLAKDCVANSCSVTLFLFPSQFVDVASLGLVPLLTGGTLYKYNVFQIHSDSQRFLTDLRNDIEKKIGFDAIMRVRTSTGFRATDFFGGIFMNNTTDVEMAAIDCDKAVTVEFKHDDKLSEDVGALIQCAVLYTTISGQRRLRIHNLALNCSTQLADLYKSCETDALINFFAKSAFKAVLNQPLKAIREILVNQTAHMLACYRKHCASPSAASQLILPDSMKVLPVYMNSLLKNCVLLSRSEISPDERAYQRQLVMTMGVADSQLFFYPLLLPIHTLDVKSAALPPAVRCSESRLSEEGIFLLANGLNMFLWFGVGSPPELIQGIFNVPSFAHINTDMTSLPEVGSPHSQQLRMIMNNIQQKKPYSMKLIVVKQREQREMAFRQFLVEDKGLYGGSSYVDFLCCVHKEICQLLN
binding: binds
